Values are relative to the signal before dosing, not to a vehicle control; the signal also falls without drug.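 Labels refer to human fibroblasts, largely primary: uterine (C12385, HUF), lung (H6013), bone (Hs27A), adrenal (HADF), skin (WS1), plus mammary HMF and breast cancer-associated Hs343T. Cancer lines are basal-like or mesenchymal-like triple-negative breast cancer. The paper counts as hits responses shifting over 3x the replicate standard deviation. The tissue of the other fibroblasts is not given here.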
Tested on: Hs578T
Assay: relative JC-1 red fluorescence (viability) vs pre-drug, coculture with fibroblast (fraction); higher = more viable cancer cells
Protocol: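 JC-1 labelled TNBC cells cocultured 1:1 (1,500 cells each) with CellTrace Violet stained primary or stromal fibroblasts in 384-well plates in FluoroBrite medium, treated with one of 42 anticancer drugs at 0.1, 1, 10 or 100 uM. JC-1 red fluorescence (mitochondrial integrity in cancer cells only) was read by plate reader every 8 h for 72 h. Values are normalised to each well's pre-drug value. The stock of one drug was tenfold lower, so its dose labels may be too high.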

CC(=O)O[C@H]1C(=O)[C@@]2(C)[C@H]([C@H](OC(=O)c3ccccc3)[C@]3(O)C[C@H](OC(=O)[C@H](O)[C@@H](NC(=O)c4ccccc4)c4ccccc4)C(C)=C1C3(C)C)[C@]1(OC(C)=O)CO[C@@H]1C[C@@H]2O [Paclitaxel]
relative JC-1 red fluorescence
Details	8 h	16 h	24 h	32 h	40 h	48 h	56 h	64 h	72 h
0.1 µM	0.863	0.753	0.711	0.672	0.615	0.591	0.584	0.561	0.57
1 µM	0.839	0.748	0.723	0.679	0.625	0.59	0.593	0.581	0.587
10 µM	0.921	0.7992	0.724	0.661	0.59	0.554	0.542	0.529	0.543

relative JC-1 red fluorescence
Details	8 h	16 h	24 h	32 h	40 h	48 h	56 h	64 h	72 h
0.1 µM, coculture fibroblast: C12385	0.855	0.725	0.676	0.547	0.468	0.444	0.43	0.448	0.462
0.1 µM, coculture fibroblast: H6013	0.918	0.813	0.775	0.698	0.622	0.629	0.628	0.64	0.634
0.1 µM, coculture fibroblast: H6019	0.79	0.651	0.639	0.543	0.5056	0.493	0.487	0.49	0.49
0.1 µM, coculture fibroblast: H6076	0.9264	0.827	0.761	0.713	0.643	0.64	0.626	0.641	0.659
0.1 µM, coculture fibroblast: H6231	0.906	0.804	0.683	0.677	0.597	0.586	0.552	0.533	0.526
0.1 µM, coculture fibroblast: HADF	0.945	0.861	0.77	0.673	0.6	0.585	0.574	0.571	0.565
0.1 µM, coculture fibroblast: HCFa	0.8762	0.7635	0.689	0.586	0.52	0.509	0.478	0.477	0.447
0.1 µM, coculture fibroblast: HCPF	0.853	0.93	0.813	0.744	0.643	0.602	0.577	0.551	0.525
0.1 µM, coculture fibroblast: HHSteC	0.914	0.789	0.706	0.599	0.532	0.504	0.489	0.483	0.457
0.1 µM, coculture fibroblast: HMF	0.87	0.75	0.662	0.619	0.53	0.496	0.472	0.4701	0.4719
0.1 µM, coculture fibroblast: HPFa	0.93204	0.876	0.743	0.633	0.5611	0.528	0.499	0.486	0.451
0.1 µM, coculture fibroblast: HUF	0.8751	0.733	0.691	0.553	0.488	0.476	0.465	0.47	0.475
0.1 µM, coculture fibroblast: Hs27A	0.859	0.777	0.678	0.572	0.525	0.529	0.52	0.524	0.508
0.1 µM, coculture fibroblast: Hs343T	0.91	0.76	0.653	0.608	0.502	0.479	0.454	0.452	0.465
0.1 µM, coculture fibroblast: WS1	0.847	0.7119	0.68	0.579	0.504	0.486	0.455	0.465	0.473
1 µM, coculture fibroblast: C12385	0.8525	0.724	0.754	0.652	0.607	0.609	0.602	0.634	0.663
1 µM, coculture fibroblast: H6013	0.8936	0.838	0.8	0.741	0.692	0.696	0.709	0.736	0.728
1 µM, coculture fibroblast: H6019	0.783	0.681	0.671	0.571	0.536	0.53	0.522	0.524	0.52
1 µM, coculture fibroblast: H6076	0.866	0.808	0.755	0.708	0.645	0.647	0.656	0.658	0.684
1 µM, coculture fibroblast: H6231	0.872	0.907	0.704	0.617	0.516	0.477	0.433	0.411	0.414
1 µM, coculture fibroblast: HADF	0.8931	0.774	0.687	0.584	0.505	0.493	0.467	0.478	0.465
1 µM, coculture fibroblast: HCFa	0.874	0.778	0.705	0.589	0.499	0.476	0.452	0.444	0.426
1 µM, coculture fibroblast: HCPF	0.898	0.781	0.6912	0.6313	0.525	0.503	0.504	0.475	0.483
1 µM, coculture fibroblast: HHSteC	0.9221	0.8077	0.77	0.688	0.637	0.612	0.602	0.601	0.581
1 µM, coculture fibroblast: HMF	0.869	0.744	0.685	0.611	0.497	0.475	0.466	0.458	0.466
1 µM, coculture fibroblast: HPFa	0.9176	0.836	0.7476	0.628	0.559	0.538	0.51	0.504	0.4852
1 µM, coculture fibroblast: HUF	0.8726	0.751	0.694	0.55	0.493	0.464	0.447	0.445	0.454
1 µM, coculture fibroblast: Hs27A	0.888	0.8333	0.719	0.619	0.556	0.571	0.556	0.58	0.56
1 µM, coculture fibroblast: Hs343T	0.8698	0.754	0.689	0.641	0.535	0.5006	0.4818	0.4813	0.5032
1 µM, coculture fibroblast: WS1	0.821	0.718	0.654	0.532	0.462	0.451	0.426	0.44	0.45
10 µM, coculture fibroblast: C12385	0.872	0.751	0.704	0.589	0.51	0.477	0.458	0.459	0.464
10 µM, coculture fibroblast: H6013	0.918	0.867	0.813	0.769	0.732	0.744	0.749	0.767	0.757
10 µM, coculture fibroblast: H6019	0.824	0.7129	0.72	0.631	0.604	0.595	0.586	0.585	0.577
10 µM, coculture fibroblast: H6076	0.9142	0.798	0.754	0.729	0.685	0.696	0.694	0.707	0.721
10 µM, coculture fibroblast: H6231	0.9246	0.815	0.677	0.625	0.528	0.503	0.447	0.425	0.409
10 µM, coculture fibroblast: HADF	0.925	0.867	0.806	0.691	0.603	0.573	0.555	0.546	0.53
10 µM, coculture fibroblast: HCFa	0.921	0.857	0.816	0.758	0.6858	0.691	0.6828	0.698	0.685
10 µM, coculture fibroblast: HCPF	0.964	0.8435	0.745	0.677	0.563	0.524	0.497	0.459	0.442
10 µM, coculture fibroblast: HHSteC	0.90929	0.806	0.704	0.606	0.541	0.519	0.509	0.508	0.499
10 µM, coculture fibroblast: HMF	0.9102	0.776	0.699	0.65	0.566	0.537	0.513	0.499	0.495
10 µM, coculture fibroblast: HPFa	0.9172	0.8666	0.717	0.573	0.499	0.46	0.442	0.434	0.415
10 µM, coculture fibroblast: HUF	0.8828	0.737	0.709	0.572	0.494	0.459	0.435	0.437	0.441
10 µM, coculture fibroblast: Hs27A	0.9106	0.8681	0.7894	0.6889	0.627	0.634	0.61	0.615	0.596
10 µM, coculture fibroblast: Hs343T	0.968	0.812	0.716	0.629	0.499	0.451	0.409	0.395	0.391
10 µM, coculture fibroblast: WS1	0.8727	0.749	0.705	0.588	0.519	0.498	0.464	0.46	0.461

— the supplement of paper PMC6078165
